The values that follow come from paper PMC2776356 (2009).

Chains of the proteins cited; added tags and fusions are not shown. Lines headed by an entry give the natural chain unless they say otherwise; changes in a name come on top.
UniProt Q969G9: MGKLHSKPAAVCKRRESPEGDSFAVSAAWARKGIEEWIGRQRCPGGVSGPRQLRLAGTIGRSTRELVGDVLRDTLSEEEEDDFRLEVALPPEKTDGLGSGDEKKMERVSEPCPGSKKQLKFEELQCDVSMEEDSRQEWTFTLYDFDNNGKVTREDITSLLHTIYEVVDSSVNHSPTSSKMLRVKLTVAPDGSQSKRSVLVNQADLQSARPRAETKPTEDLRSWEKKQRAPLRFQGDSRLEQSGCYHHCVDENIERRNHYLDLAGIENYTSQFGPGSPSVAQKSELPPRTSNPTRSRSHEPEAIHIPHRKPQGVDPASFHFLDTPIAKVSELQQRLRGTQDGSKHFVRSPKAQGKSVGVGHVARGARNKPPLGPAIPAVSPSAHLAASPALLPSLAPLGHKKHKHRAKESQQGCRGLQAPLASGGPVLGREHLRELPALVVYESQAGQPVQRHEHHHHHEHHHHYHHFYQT
UniProt O14641: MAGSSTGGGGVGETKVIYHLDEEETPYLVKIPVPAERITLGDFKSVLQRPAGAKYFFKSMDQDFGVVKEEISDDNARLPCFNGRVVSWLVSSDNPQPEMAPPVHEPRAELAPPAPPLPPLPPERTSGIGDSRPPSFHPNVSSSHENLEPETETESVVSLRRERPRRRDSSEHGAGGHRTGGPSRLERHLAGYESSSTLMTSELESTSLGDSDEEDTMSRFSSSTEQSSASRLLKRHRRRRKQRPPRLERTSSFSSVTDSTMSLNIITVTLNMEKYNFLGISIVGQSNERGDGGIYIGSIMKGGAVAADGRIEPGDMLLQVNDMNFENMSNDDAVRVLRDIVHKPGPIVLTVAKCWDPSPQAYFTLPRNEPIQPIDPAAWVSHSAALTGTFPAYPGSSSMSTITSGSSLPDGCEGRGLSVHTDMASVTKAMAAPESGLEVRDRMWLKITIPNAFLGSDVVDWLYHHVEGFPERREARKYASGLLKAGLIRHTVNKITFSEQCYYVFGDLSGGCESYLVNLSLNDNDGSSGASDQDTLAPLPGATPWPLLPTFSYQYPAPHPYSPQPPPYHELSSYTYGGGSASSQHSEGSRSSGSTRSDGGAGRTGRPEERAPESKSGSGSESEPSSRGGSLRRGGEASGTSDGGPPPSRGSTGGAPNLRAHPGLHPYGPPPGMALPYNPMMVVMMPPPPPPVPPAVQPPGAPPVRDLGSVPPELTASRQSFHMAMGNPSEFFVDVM

The assay concerns the target Nkd1^1–286 with the 30aa motif deleted (yeast two-hybrid bait) (human) (UniProt Q969G9). Put plainly: two-hybrid; Nkd1 baits in pAS2-1, Dvl preys in pAct2, yeast reporter strain Y190; growth on triple dropout (-Leu-Trp-His) with 50 mM 3-AT against double dropout (-Leu-Trp); quantitative ONPG assay.

These are yes or no findings as the source states them, for the method shown. Binding calls can cover weak binding; strength is not graded here.

As for “Dvl2 (yeast two-hybrid prey) (from UniProt O14641 1-736)”, the binding result is on record as “binds”.

B1: Dvl1 (yeast two-hybrid prey) (protein, UniProt O14640 1-695)
chain: MAETKIIYHMDEEETPYLVKLPVAPERVTLADFKNVLSNRPVHAYKFFFKSMDQDFGVVKEEIFDDNAKLPCFNGRVVSWLVLAEGAHSDAGSQGTDSHTDLPPPLERTGGIGDSRPPSFHPNVASSRDGMDNETGTESMVSHRRERARRRNREEAARTNGHPRGDRRRDVGLPPDSASTALSSELESSSFVDSDEDGSTSRLSSSTEQSTSSRLIRKHKRRRRKQRLRQADRASSFSSITDSTMSLNIVTVTLNMERHHFLGISIVGQSNDRGDGGIYIGSIMKGGAVAADGRIEPGDMLLQVNDVNFENMSNDDAVRVLREIVSQTGPISLTVAKCWDPTPRSYFTVPRADPVRPIDPAAWLSHTAALTGALPRYGTSPCSSAVTRTSSSSLTSSVPGAPQLEEAPLTVKSDMSAVVRVMQLPDSGLEIRDRMWLKITIANAVIGADVVDWLYTHVEGFKERREARKYASSLLKHGFLRHTVNKITFSEQCYYVFGDLCSNLATLNLNSGSSGTSDQDTLAPLPHPAAPWPLGQGYPYQYPGPPPCFPPAYQDPGFSYGSGSTGSQQSEGSKSSGSTRSSRRAPGREKERRAAGAGGSGSESDHTAPSGVGSSWRERPAGQLSRGSSPRSQASATAPGLPPPHPTTKAYTVVGGPPGGPPVRELAAVPPELTGSRQSFQKAMGNPCEFFVDIM
For B1, the binding result is “binds”.
